The list does not hold the whole screen: it is rich in T/C values a quarter to a half above the control, in often repeated tests (any T/C) and in doses without a T/C. Other doses and runs of a compound stand elsewhere. T/C: endpoint of the treated group in % of that of the vehicle group. Some doses have a count of surviving animals in place of a T/C: the source holds a T/C of zero for them, seemingly a mark for toxic or unscored doses. Some doses without a T/C left all or most animals alive at the check, yet need not have been tolerated: survival well below the control is almost never listed, so the zero probably covers shortened survival too. Counts of survivors are from the toxicity check (mostly the fifth day) where no day follows; animals may have died later. Schedule codes are those of the source, read here as Q, the interval in days (D) or hours (H), X, the number of doses. Counts like (3×) say how often a value occurs here. Some entries were tested several times; their values stand side by side, smallest first. Some structures stand for samples that the source files as different forms (salt, stereo form or complex); doses refer to the form tested. Where survival is the endpoint, this PubChem deposit counts one and a half times the control or more as active, and values a quarter to a half above the control carry no call in these data; other NCI protocols may use other cut-offs. Some T/C values carry the count of animals alive at the toxicity check (mostly the fifth day); without a count, all were alive then.
Tested on: P388 leukemia ip, CD2F1 mice, survival T/C
Test: NCI In Vivo Anticancer Drug Screen. Data for tumor model P388 Leukemia (intraperitoneal) in CD2F1 (CDF1) mice
Details: T/C endpoint: median survival time, higher T/C = longer survival
[1] = dose: 240.0 mg/kg/injection, schedule: Q01DX005 (ip), vehicle: Klucel (hydroxypropylcellulose) (HPC)
[2] = dose: 6.25 mg/kg/injection, schedule: Q01DX009 (ip), vehicle: Klucel (hydroxypropylcellulose) (HPC)
[3] = dose: 50.0 mg/kg/injection, schedule: Q04DX002 (ip), vehicle: saline with Tween-80
[4] = dose: 50.0 mg/kg/injection, schedule: Q01DX009 (ip), vehicle: saline
[5] = dose: 200.0 mg/kg/injection, schedule: Q01DX009 (ip), vehicle: saline
[6] = dose: 6.25 mg/kg/injection, schedule: Q01DX009 (ip), vehicle: saline with Tween-80
[7] = dose: 50.0 mg/kg/injection, schedule: Q01DX009 (ip), vehicle: saline with Tween-80
[8] = dose: 200.0 mg/kg/injection, schedule: Q01DX009 (ip), vehicle: Klucel (hydroxypropylcellulose) (HPC)

In the case of C=Cc1cc(OC)c2c(c1)c(=O)oc1c2cc(OC)c2c(O)ccc(C3OC(C(C)O)C(O)C3O)c21 (stereo unspecified), the T/C (dose: 4.0 mg/kg/injection, schedule: Q04DX003 (ip), vehicle: DMSO) is reported as 127 % of control, the T/C (dose: 8.0 mg/kg/injection, schedule: Q04DX003 (ip), vehicle: DMSO) is reported as 135 % of control and the T/C (dose: 16.0 mg/kg/injection, schedule: Q04DX003 (ip), vehicle: DMSO) is reported as 148 % of control. For the same compound, the T/C (dose: 25.0 mg/kg/injection, schedule: Q01DX005 (ip), vehicle: Klucel (hydroxypropylcellulose) (HPC)) was 131 and 142 % of control [4 of 5 alive], the T/C (dose: 50.0 mg/kg/injection, schedule: Q01DX005 (ip), vehicle: Klucel (hydroxypropylcellulose) (HPC)) was 141 and 142 % of control and the T/C (dose: 100.0 mg/kg/injection, schedule: Q01DX005 (ip), vehicle: Klucel (hydroxypropylcellulose) (HPC)) was 136 and 147 % of control. For the same compound, the T/C (dose: 120.0 mg/kg/injection, schedule: Q01DX005 (ip), vehicle: Klucel (hydroxypropylcellulose) (HPC)) was 142 % of control, the T/C (dose: 200.0 mg/kg/injection, schedule: Q01DX005 (ip), vehicle: Klucel (hydroxypropylcellulose) (HPC)) was 140 % of control and the survivor count [1] was 6 of 6.
N#Cc1ccc(Br)cc1[N+](=O)[O-] was tested, and the survivor count [2] was 6 of 6, the survivor count (dose: 12.5 mg/kg/injection, schedule: Q01DX009 (ip), vehicle: Klucel (hydroxypropylcellulose) (HPC)) was 6 of 6 and the survivor count (dose: 25.0 mg/kg/injection, schedule: Q01DX009 (ip), vehicle: Klucel (hydroxypropylcellulose) (HPC)) was 4 of 6.
COC1/C=C\C=C(/C)C(=O)NC2=CC(=O)C(NCCCl)=C(CC(C)CC(OC)C(O)C(C)/C=C(/C)C1OC(N)=O)C2=O (stereo unspecified) was tested, and the T/C (dose: 10.0 mg/kg/injection, schedule: Q04DX002 (ip), vehicle: saline with Tween-80) was 125 % of control, the T/C (dose: 25.0 mg/kg/injection, schedule: Q04DX002 (ip), vehicle: saline with Tween-80) was 134 and 138 % of control and the T/C (dose: 40.0 mg/kg/injection, schedule: Q04DX002 (ip), vehicle: saline with Tween-80) was 126 % of control [5 of 6 alive]. For the same compound, the T/C [3] was 147 % of control, the survivor count [3] was 6 of 6 and the survivor count (dose: 80.0 mg/kg/injection, schedule: Q04DX002 (ip), vehicle: saline with Tween-80) was 0 of 6. The survivor count (dose: 100.0 mg/kg/injection, schedule: Q04DX002 (ip), vehicle: saline with Tween-80) was 1 of 6.
With CCCCCCCCCCCCCCCCCCOP(=O)([O-])OCC[N+](C)(C)C the survivor count [4] was 5 of 6 and 6 of 6, the survivor count (dose: 100.0 mg/kg/injection, schedule: Q01DX009 (ip), vehicle: saline) was 0 of 6 and the survivor count [5] was 0 of 6.
For CCCCCCCCC#CCO, the survivor count (dose: 240.0 mg/kg/injection, schedule: Q01DX005 (ip), vehicle: saline with Tween-80) was 3 of 6.
For NC1=C(O)C(=O)C(c2ccc3c(c2)CCC3)O1 (stereo unspecified), the survivor count [1] was 6 of 6.
Cc1cnc(/C=N\NC(N)=S)c2cccc(N)c12 was tested, and the T/C (dose: 3.13 mg/kg/injection, schedule: Q01DX009 (ip), vehicle: Klucel (hydroxypropylcellulose) (HPC)) was 136 % of control (2×), the T/C (dose: 3.13 mg/kg/injection, schedule: Q01DX009 (ip), vehicle: other) was 139 % of control and the T/C (dose: 3.13 mg/kg/injection, schedule: Q01DX009 (ip), vehicle: saline) was 144 % of control. For the same compound, the T/C (dose: 3.13 mg/kg/injection, schedule: Q01DX009 (ip), vehicle: water) was 146 % of control, the T/C [2] was 143 and 145 % of control and the T/C (dose: 6.25 mg/kg/injection, schedule: Q01DX009 (ip), vehicle: other) was 144 % of control. The T/C [6] was 136 % of control, the T/C (dose: 6.25 mg/kg/injection, schedule: Q01DX009 (ip), vehicle: saline) was 134 % of control and the T/C (dose: 7.2 mg/kg/injection, schedule: Q01DX005 (ip), vehicle: clinical formulation) was 128 % of control. For the same compound, the survivor count (dose: 50.0 mg/kg/injection, schedule: Q01DX009 (ip), vehicle: Klucel (hydroxypropylcellulose) (HPC)) was 6 of 6, the survivor count (dose: 50.0 mg/kg/injection, schedule: Q01DX009 (ip), vehicle: other) was 0 of 6 and the survivor count [4] was 6 of 6. For the same compound, the survivor count (dose: 50.0 mg/kg/injection, schedule: Q01DX009 (ip), vehicle: water) was 5 of 6.
With CCN(CC)CCOC1C=C(C)C2CC1C2(C)C (stereo unspecified) the survivor count (dose: 200.0 mg/kg/injection, schedule: Q01DX005 (ip), vehicle: saline) was 0 of 6.
In the case of CC(=O)Oc1ccc(/C=N\N(C)C)cc1, the survivor count [5] is reported as 6 of 6.
For C/C(C#N)=C/c1ccccc1, the survivor count (dose: 200.0 mg/kg/injection, schedule: Q01DX009 (ip), vehicle: saline with Tween-80) was 3 of 6.
In the case of O=[N+]([O-])c1ccc(Sc2ccccn2)nc1Sc1ccccn1, the survivor count [6] is reported as 6 of 6, the survivor count (dose: 12.5 mg/kg/injection, schedule: Q01DX009 (ip), vehicle: saline with Tween-80) is reported as 6 of 6 and the survivor count (dose: 25.0 mg/kg/injection, schedule: Q01DX009 (ip), vehicle: saline with Tween-80) is reported as 6 of 6. For the same compound, the survivor count [7] was 6 of 6 and the survivor count (dose: 100.0 mg/kg/injection, schedule: Q01DX009 (ip), vehicle: saline with Tween-80) was 5 of 6.
For COc1cc2c[n+](C)c3c4cc(OC)c(OC)cc4c(OCc4ccccc4)cc3c2cc1OC, the T/C (dose: 12.5 mg/kg/injection, schedule: Q01DX005 (ip), vehicle: saline with Tween-80) was 128 % of control, the T/C (dose: 25.0 mg/kg/injection, schedule: Q01DX005 (ip), vehicle: saline with Tween-80, evaluated on day 20) was 139 % of control and the T/C (dose: 25.0 mg/kg/injection, schedule: Q01DX005 (ip), vehicle: saline with Tween-80, evaluated on day 30) was 142 % of control. For the same compound, the survivor count (dose: 50.0 mg/kg/injection, schedule: Q01DX005 (ip), vehicle: saline with Tween-80) was 6 of 6 (2×), the survivor count (dose: 100.0 mg/kg/injection, schedule: Q01DX005 (ip), vehicle: saline with Tween-80) was 2 of 6 and the survivor count (dose: 200.0 mg/kg/injection, schedule: Q01DX005 (ip), vehicle: saline with Tween-80) was 0 of 6.
For CCN(CC)CCOc1ccc(NC2=C(Cl)C(=O)C(Nc3ccc(OCCN(CC)CC)cc3)=C(Cl)C2=O)cc1, the survivor count [7] was 3 of 6.
With CCOC(=O)c1c(N)[nH]c(SSc2[nH]c(N)c(C(=O)OCC)c2C(=O)OCC)c1C(=O)OCC the T/C (dose: 150.0 mg/kg/injection, schedule: Q01DX009 (ip), vehicle: saline) was 132 % of control.
O=C1C2C3C=CC(C2C(=O)N1CCl)C1C2C(=O)N(CCl)C(=O)C2C31 (stereo unspecified) was tested, and the T/C (dose: 400.0 mg/kg/injection, schedule: Q01DX009 (ip), vehicle: saline with Tween-80) was 126 % of control.
With Cc1ccc(Nc2ccc(Nc3ccc(C)cc3)c3c2C(=O)c2cc(Cl)c(Cl)cc2C3=O)cc1 the T/C [8] was 129 % of control [4 of 6 alive] and the survivor count (dose: 400.0 mg/kg/injection, schedule: Q01DX009 (ip), vehicle: Klucel (hydroxypropylcellulose) (HPC)) was 3 of 6.
In the case of CCOc1c(N=Nc2cccc(Cl)c2)c(C)nn1C(=S)S, the survivor count (dose: 60.0 mg/kg/injection, schedule: Q01DX005 (ip), vehicle: Klucel + Tween-80) is reported as 0 of 6 and 1 of 6, the survivor count (dose: 120.0 mg/kg/injection, schedule: Q01DX005 (ip), vehicle: Klucel + Tween-80) is reported as 0 of 6 and the survivor count (dose: 240.0 mg/kg/injection, schedule: Q01DX005 (ip), vehicle: Klucel + Tween-80) is reported as 0 of 6.
In the case of C[n+]1cc2c3ccccc3ccc2c2ccccc21, the survivor count (dose: 50.0 mg/kg/injection, schedule: Q04DX003 (ip), vehicle: distilled water + Tween-80) is reported as 5 of 6, the survivor count (dose: 100.0 mg/kg/injection, schedule: Q04DX003 (ip), vehicle: distilled water + Tween-80) is reported as 0 of 6 and the survivor count (dose: 200.0 mg/kg/injection, schedule: Q04DX003 (ip), vehicle: distilled water + Tween-80) is reported as 2 of 6. The survivor count (dose: 400.0 mg/kg/injection, schedule: Q04DX003 (ip), vehicle: distilled water + Tween-80) was 2 of 6.
CCCCCCCCCCCCCCCC[N+](C)(C)C(C)c1ccccc1 (stereo unspecified) was tested, and the T/C (dose: 3.13 mg/kg/injection, schedule: Q04DX003 (ip), vehicle: saline with Tween-80) was 125 and 126 % of control and the survivor count (dose: 6.25 mg/kg/injection, schedule: Q04DX003 (ip), vehicle: saline with Tween-80) was 0 of 6.
CC1=C(N2CC2)C(=O)c2ccccc2C1=O was tested, and the survivor count [8] was 2 of 6.

Reference: PubChem BioAssay AID330 (DTP/NCI, 2004)
